Consider 108 sequences from PubChem BioAssay AID1347426 (Functional Genomics Laboratory (NCATS/FGL), 2020).

The campaign covered roughly 31,000 sequences. About 1,400 (4.5%) were called active.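 Rule for the calls: active = median seed-adjusted z-score above 1 or below -1; inactive = the rest.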 The list shows a part of the results.

The assay can be described thus: Novel Modifiers of Survival Motor Neuron (SMN) Protein: Gene Identification via Genome-wide siRNA Screen.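 Note: luminescence tracks full-length SMN protein made from the SMN2 reporter.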 Conditions: HEK293T SMN2-luciferase reporter, siRNA knockdown, 72 h; actives lie on both sides. Summed up: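 Luciferase signal, proportional to full-length SMN made from an SMN2 cDNA reporter in stable HEK293T cells, was read 72 h after siRNA reverse transfection. Values were expressed as MAD scores after non-targeting-control normalization and log10 conversion; seed analysis flagged off-targets.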
In the case of GGAGCACAGUGACGAGAAUTT against RGS13, the median seed-adjusted z-score is inactive: 0.0487.

On to CCAACUGAGAAUAACUCAATT against GULP1, for which the median seed-adjusted z-score was inactive: -0.0337.

Consider GAGAGCAUCCUGUACCGUATT against NTRK1, for which the median seed-adjusted z-score is inactive: -0.223.

With ACACGUUCAUGCUAAAGCATT against HDAC5, the median seed-adjusted z-score is inactive: -0.342. Regarding GAUACGAGAGAGCAAUUUATT against NUP107, the median seed-adjusted z-score was inactive: -0.692.

Regarding GCCGAUACCUUGUCAACCATT against SLC27A3, the median seed-adjusted z-score is inactive: -0.341. On to GCAUCGCAAUGGUUGCAUUTT against SLC26A3, for which the median seed-adjusted z-score is inactive: -0.506. Take GACUUCAGGUUGAUGAGAATT against SLC25A17: the median seed-adjusted z-score is inactive: 0.0311. Turning to CCAUCGCCUCAGUUGCUAUTT against CORIN, the median seed-adjusted z-score was inactive: -0.0274. On to GGAUCCUAUUUGUCUAUUUTT against PSMD12, for which the median seed-adjusted z-score is inactive: 0.956. For the sequence ACUGUAAUCAGGAUUCUCATT against ANXA10, the median seed-adjusted z-score is inactive: 0.0445. For GAGAAAAAGCGGAUCAAGATT against GRK6 the value was inactive: -0.862; for GGCUAAUACUGAGCUAGAATT against KRT12, inactive: -0.0457; for GAAUAGAAGUCUUAUUGAATT against ZKSCAN4, inactive: 0.0558.

In the case of GACCACCACUUAUAGGGUATT against FUT3, the median seed-adjusted z-score is inactive: 0.11. Regarding GCCUGUUUCAAGACACUGATT against CRNN, the median seed-adjusted z-score was inactive: -0.0758. With GGAGAAAGGUGGUCACAGUTT against DBH, the median seed-adjusted z-score was inactive: 0.337.

On to UCGUCUUUCUAGCUACAGATT against SIAH2, for which the median seed-adjusted z-score was inactive: 0.156. Take CGUCAAAUUUUUGCACAAATT against GPR176: the median seed-adjusted z-score is inactive: 0.0782. For the sequence AGGUCUCCCUAUACCGAGATT against SOD3, the median seed-adjusted z-score was inactive: -0.0691. For the sequence GCGCAGUAUGGGUUGGAAATT against ZMYND11, the median seed-adjusted z-score was inactive: -0.032. For the sequence GAACUUCUGGACAAGAAAATT against CTSB, the median seed-adjusted z-score was inactive: -0.31. In the case of CAAUGAUUGGGCUCUAUGATT against EMID1, the median seed-adjusted z-score was inactive: 0.979. Consider CGGACAAGCUGAACGAACATT against TTC15, for which the median seed-adjusted z-score was inactive: -0.235. As for CUCUUCUCCGGUUACAACATT against CHRNA4, the median seed-adjusted z-score was inactive: 0.174. In the case of GGCAAUCAGUGUAGUGUAATT against TBC1D8B it was inactive: -0.985; in that of GCUUAUGAUGUCUACAAUATT against BBS2, inactive: 0. In the case of GGAGCGCAAGAUCACCUUATT against SSTR1, the median seed-adjusted z-score was inactive: 0.285. Regarding GAACAAUCCGAUUCACGUATT against AKT1, the median seed-adjusted z-score is inactive: -0.288. Consider GGAUAGUUACUGACCGGGATT against NCL, for which the median seed-adjusted z-score was active: 1.33. For GCACCACCGCUUCUAUGCATT against GPR27 the value was inactive: -0.678; for AGCUUUCUUGAGCACCUGATT against LRRC32, inactive: 0.0464; for GUUCAUCCCUUAUUCGACATT against ZNF215, inactive: 0.485.

Consider CUGAAUCCCUCUAUAGUGATT against NR1D1, for which the median seed-adjusted z-score was inactive: -0.301. For the sequence GGAUGGAACCGAUCACGAATT against PHF16, the median seed-adjusted z-score was inactive: 0. Take GAGACUUACUCUUCGAAGATT against DOCK8: the median seed-adjusted z-score is inactive: 0.243. With GUACUGGUAUAACUAUGAATT against SLC25A40, the median seed-adjusted z-score was inactive: 0.414. CAAGAUAUAUAUACGCCUATT against NPY1R: the median seed-adjusted z-score was inactive: 0.76.

For the sequence GCAAACUCCUCAAUAUGAUTT against XCR1, the median seed-adjusted z-score was inactive: -0.292. On to GGAUCCUAAUGACAAAGUUTT against CRHR2, for which the median seed-adjusted z-score was inactive: -0.211. Regarding CAAUAAGACUGAGUUAUUATT against ETNK1, the median seed-adjusted z-score is inactive: 0.299. In the case of GAAAUACCCUCAUGUCCAATT against CYP2S1 it was inactive: -0.196.

Take GCCUUAAGAUCUCGGCGUATT against PTPRK: the median seed-adjusted z-score is inactive: 0.

CCAUCAUACAGUCUCCUUATT against SNTB1: the median seed-adjusted z-score is inactive: 0.488. Take GCUCUGCAAGGAUCGAUUUTT against AMFR: the median seed-adjusted z-score was inactive: -0.15.

CAUGGUACCUGGAUUCAGATT against MAP3K11: the median seed-adjusted z-score is inactive: 0.773. In the case of CGUGGAAUACUAGAGCAAATT against ACTL6A it was active: 1.11; in that of GAAGAGAUAGAGAUAGUAATT against CARD17, inactive: 0.301; in that of GAAGAUUCGAAAUAAAAGATT against CREB3, inactive: 0.0509. For GGAGACCUGCGAUUACUUUTT against BARX2 the value was inactive: -0.206; for GGAGAAAUCCAUCAACAAATT against PHYHD1, inactive: -0.37; for CCCUCGCUUCAGUACCUUATT against GCLC, inactive: -0.21.

Regarding AAACUCACCUUAAUAAAGATT against UBL5, the median seed-adjusted z-score is inactive: -0.706.

Consider GGUGGAUGGUAAAAACGAATT against ADAM17, for which the median seed-adjusted z-score is inactive: 0. Consider GGUGAUUUAUCUCAUGAGATT against SULT2A1, for which the median seed-adjusted z-score is inactive: -0.123. Regarding AGUUCAAGCGGAUCCUGAATT against PDE4C, the median seed-adjusted z-score is inactive: 0.565. In the case of AGGAUACAAUGAUUGGUGATT against BPIL3 it was inactive: -0.0506; in that of AGAGCACCAGAAGACACAATT against GJC3, inactive: -0.137.

On to GAGCUUUACUGAUUGACGATT against PUM2, for which the median seed-adjusted z-score is inactive: -0.129. For the sequence CGAUGAAGUUGACAGGCGATT against GIT2, the median seed-adjusted z-score is inactive: 0.338. For CCAACAAGGAUGAUAUGAATT against MTCH1 the value was inactive: 0; for CCAUAUCAAGUGUGACAAATT against ZNF577, inactive: -0.756. Take CAUCAAGCCUCAUCUAAUATT against CHD1: the median seed-adjusted z-score was active: -1.03.

For CUGUCAGGCUAAAUCCAGATT against IFIT1L, the median seed-adjusted z-score was inactive: 0.166.

For the sequence CUGCUGUUGUUACUACCCATT against USF1, the median seed-adjusted z-score is inactive: 0.16. For AGAAAUGAUGGAUAUUUGATT against GSTA1, the median seed-adjusted z-score was inactive: 0.27.

As to GGAGGUCAGGUAUAUGGAATT against PSMB9, the median seed-adjusted z-score was inactive: -0.788. In the case of CAGUGAUGGUUAAGAACGATT against A2M, the median seed-adjusted z-score was active: -1.96. For GAAGCUUGAGGAACACGAATT against GOLGB1, the median seed-adjusted z-score was inactive: 0.0851. For the sequence GGAUGACAAUCAAGGAAAUTT against SERPINB7, the median seed-adjusted z-score was inactive: 0.584. In the case of GAAGUGACCUUCUCCUGGATT against PRRX2, the median seed-adjusted z-score was inactive: -0.141. Regarding CACUAAAUGUGACUCCUGATT against TTC5, the median seed-adjusted z-score was inactive: -0.296. On to ACUUCAACAUGACCAAAAATT against PPARD, for which the median seed-adjusted z-score was inactive: 0.0283. In the case of CUGUAUACUUGACAAACGATT against NRK it was inactive: 0.0687. For the sequence GCCUGUCAAUCAGAAUGCATT against SIX4, the median seed-adjusted z-score was inactive: 0.0462. Regarding GAUGAUAGCCAAACCCUCATT against ZNF626, the median seed-adjusted z-score is inactive: 0.185. Turning to CUCGAUGACUUGUACUUGATT against DCPS, the median seed-adjusted z-score was inactive: 0.669. For the sequence GACUCGUUUUGUACAGUAUTT against TLK2, the median seed-adjusted z-score is inactive: 0.347. In the case of CAACUGGACAGACAACGCUTT against CD82 it was inactive: 0.102.

Consider GCGAGUUUGUCACUGCUUUTT against PDIA4, for which the median seed-adjusted z-score is inactive: -0.499. On to GCGGGAAUCUUAACUCGGATT against CDH6, for which the median seed-adjusted z-score was inactive: 0. For the sequence AGAUCGUUAUCCUACUGGATT against LINGO1, the median seed-adjusted z-score was inactive: -0.443. As for CCACCACUAUGGUUCCCACTT against KCNG4, the median seed-adjusted z-score was inactive: 0.666.

For GGAAAGGUUGUAUACGUGATT against SLC6A11, the median seed-adjusted z-score is inactive: -0.0369. Turning to ACAUCGAAACCAACCAUAATT against IDH3G, the median seed-adjusted z-score was inactive: -0.426. As for GACGGACAGUGGUAUGGUUTT against KDR, the median seed-adjusted z-score is inactive: 0.0728. For CGAACGAGCUAUCACAGAATT against TFB1M the value was inactive: 0.172; for CCGAGGUGCUAGUACGAAATT against GTPBP2, inactive: -0.166; for GCAACUAUCCCGACAUGCATT against GRIN2D, inactive: -0.135. In the case of GGAAUAGCUUUGCGAAAAATT against FABP5 it was inactive: -0.258; in that of GCACCGACCCUAGCAUCAUTT against E2F2, inactive: -0.382. Turning to GUCCGUCGCUAAUUAUGCATT against GAK, the median seed-adjusted z-score was inactive: 0.488. For GCAGCUGAGUGUUCGACUUTT against METTL7A, the median seed-adjusted z-score is inactive: 0.278. For the sequence CGAAUGAUAUCAUCAACAUTT against TDRD1, the median seed-adjusted z-score was inactive: -0.164. As to GGAUGGAGGUUGUGCAGCUTT against ITPK1, the median seed-adjusted z-score was inactive: 0.0575. For GUACGUGGAUGUGCUCAAATT against APOA1 the value was inactive: -0.239; for AGUUCCUGAUGUCAACCAATT against CYP46A1, inactive: -0.00752; for CCUCGGACCUCUCAACAAATT against AAK1, inactive: 0.27. As for CAAGUUAUCUCCUCUGCUATT against FXYD5, the median seed-adjusted z-score is inactive: -0.0885. In the case of GCCCGAUGAGAUCAACAUUTT against PPP1R14A it was inactive: 0.0124; in that of CCUUCUCUCUGAUUAUUGATT against DLL1, inactive: 0. CCUCUGGACACGUAACCUATT against NR2F6: the median seed-adjusted z-score was inactive: -0.681. In the case of GCACUAUCUCGGAUAAGUATT against SIM1 it was inactive: -0.0177. On to CAACCUUGACAAUGCAAUUTT against NNT, for which the median seed-adjusted z-score was inactive: 0.336. Regarding ACUCCUCCGUAUGUUUAUATT against PITX2, the median seed-adjusted z-score is inactive: -0.231. Regarding GGAAUUCGGUGUAUCAGAUTT against IMPDH1, the median seed-adjusted z-score is inactive: 0.558. For GGUGAUCGUGUCUUCCAUATT against DHRS4, the median seed-adjusted z-score was inactive: 0.263. As for GGAAAUCAUUCUUCACGUATT against PSMD13, the median seed-adjusted z-score is inactive: 0.58.
